Values from PubChem BioAssay AID743454 (Peter MacCallum Cancer Centre, 2014)
Assay: 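Knock-downs lowering viability or raising caspase 3/7 activity in vorinostat-treated resistant cells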 (primary screen). System: human HCT116-VR colon cancer cells, selected for vorinostat resistance. Reagent: siRNA pool against human genes, 40 nM siRNA pool. Duration: vorinostat for 24 h, read-out about 72 h after transfection. Treatment: vorinostat at 2.5 µM final. Detection: 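Two measures, CellTiter-Fluor viability and luminescent caspase 3/7 activity, each as fold change against same-plate mock wells, mean of duplicates, then screen-wide robust z-score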. Direction: viability robust z-score: higher = more viable cells than screen typical; caspase robust z-score: higher = more caspase 3/7 activity than screen typical. Rule for the call: 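Hits are knock-downs in viability class RV1/RV2 or caspase class CA1/CA2, excluding ones that killed cells in the no-drug cell-count arm; hits then retested with single siRNAs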.
This is an unselected part of about 18,000 reagents. In the full data, 450 (2.5%) are marked active. 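Single biological run; no consistent viability z cut-off exists, so the class columns, not z-scores, define the calls.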 No sequences are given here.

no.	gene knocked down	PubChem SID	viability hit class	caspase hit class	viability robust z-score	caspase robust z-score	activity call
1	ATP6V0A4	SID152152671	no change	no change	-0.3	-0.13	inactive
2	GPR132	SID134310950	no change	no change	-4.37	1.62	inactive
3	ZNF219	SID152153016	no change	no change	1.45	0.74	inactive
4	HMG20B	SID152147741	no change	no change	1.1	-0.29	inactive
5	NCKAP1	SID134315135	no change	no change	0.74	-0.66	inactive
6	SERPINB13	SID134319377	no change	CA2 (caspase activation)	-2.27	5.72	active
7	LGMN	SID152149636	no change	no change	-0.2	-0.88	inactive
8	KLHL24	SID152156384	no change	no change	-0.59	-0.21	inactive

The list goes on; the last 3 above are carried over.
no.	gene knocked down	PubChem SID	viability hit class	caspase hit class	viability robust z-score	caspase robust z-score	activity call
6	SERPINB13	SID134319377	no change	CA2 (caspase activation)	-2.27	5.72	active
7	LGMN	SID152149636	no change	no change	-0.2	-0.88	inactive
8	KLHL24	SID152156384	no change	no change	-0.59	-0.21	inactive
9	SPMIP9	SID134320191	no change	no change	-0.27	-0.07	inactive
10	TEKT3	SID134317731	no change	no change	0.44	-0.75	inactive
11	VPS37C	SID134322082	no change	no change	-1.22	0.86	inactive
12	BMP3	SID152149770	no change	no change	1.24	-0.66	inactive
13	SWSAP1	SID134321814	no change	no change	1.6	0.53	inactive
14	NFKBID	SID135620797	no change	no change	0.55	0.22	inactive
15	ATPSCKMT	SID152148055	no change	no change	-0.34	-0.36	inactive
16	DMRTC1	SID135622875	no change	no change	-1.04	3.42	inactive
17	GFRA1	SID135621466	no change	no change	0.3	-0.9	inactive
18	ZNF706	SID152151073	no change	no change	1.82	0.05	inactive
19	ABCA3	SID152146969	no change	no change	-0.28	-0.12	inactive
20	CCL28	SID135621452	no change	no change	-0.72	-1.04	inactive
21	TPK1	SID135621256	no change	no change	0.47	-0.54	inactive
22	ZSCAN5A	SID134318490	no change	no change	-0.11	0.8	inactive
23	ACP7	SID135624962	no change	no change	1.17	-0.36	inactive
